Experimental data: PubChem BioAssay AID1508597 (Cure First, 2020)
This is a random part of the about 2,100 reagents, in one setting of the screen. 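Calls flag viability under 80% in either arm, not effects specific to rucaparib; the reference for percent is not stated.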 Unmarked entries are inactive. Some reagents were tested in more than one well and are listed for each. Not stated in the record: the 100% reference.

Test: 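Survival screen with siRNA in ovarian cancer cells derived from patients, with or without rucaparib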 (primary screen)
Cell system: human ovarian carcinoma lines grown from tumours: OCI-P5x (papillary serous) and OCI-C5x (clear cell)
Knock-down reagent: siRNA pool against human genes, 1.25 pmol siRNA per well
Time to read-out: 72 h or 96 h, depending on the cell culture
Challenge: rucaparib 20 µM (about IC30) or vehicle, present until read-out
Rucaparib or vehicle: Vehicle
Cell line: OCI-P5x (serous)
Measured: 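Luminescent ATP-based viability assay read 72 or 96 h after transfection, depending on culture, given as normalised percent viability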
Reading the numbers: viability, normalised: higher = more viable cells remaining
Call rule: 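Active when normalised viability falls below 80 percent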
Calls: active = viability under 80%; inactive = viability 80% or more

For SMARCD2 (SWI/SNF related BAF chromatin remodeling complex subunit D2) [SID405527335], technical replicate 1 the deposit lists viability, normalised (%) = 50.6 (active).
With SMARCD2 (SWI/SNF related BAF chromatin remodeling complex subunit D2) [SID405527335], technical replicate 2, the entry reads viability, normalised (%) = 55.6 (active).
With SMARCD2 (SWI/SNF related BAF chromatin remodeling complex subunit D2) [SID405527335], technical replicate 3, the entry reads viability, normalised (%) = 86.2.
For FOXP3 (forkhead box P3) [SID405526799], technical replicate 1, the entry reads viability, normalised (%) = 88.
FOXP3 (forkhead box P3) [SID405526799], technical replicate 2 gave viability, normalised (%) = 93.
FOXP3 (forkhead box P3) [SID405526799], technical replicate 3 gave viability, normalised (%) = 136.
For MBD3 (methyl-CpG binding domain protein 3) [SID405526971], technical replicate 1, the entry reads viability, normalised (%) = 41.9 (active).
MBD3 (methyl-CpG binding domain protein 3) [SID405526971], technical replicate 2 scored viability, normalised (%) = 42.2 (active).
MBD3 (methyl-CpG binding domain protein 3) [SID405526971], technical replicate 3 scored viability, normalised (%) = 48 (active).
PLCB2 (phospholipase C beta 2) [SID405526706], technical replicate 1 gave viability, normalised (%) = 80.1.
PLCB2 (phospholipase C beta 2) [SID405526706], technical replicate 2 gave viability, normalised (%) = 72 (active).
For PLCB2 (phospholipase C beta 2) [SID405526706], technical replicate 3, the entry reads viability, normalised (%) = 86.6.
With TTN (titin) [SID405527625], technical replicate 1, the values are viability, normalised (%) = 95.8.
TTN (titin) [SID405527625], technical replicate 2 scored viability, normalised (%) = 100.
TTN (titin) [SID405527625], technical replicate 3 showed viability, normalised (%) = 111.
For EMSY (EMSY transcriptional repressor, BRCA2 interacting) [SID405528054], technical replicate 1, the values are viability, normalised (%) = 56.3 (active).
For EMSY (EMSY transcriptional repressor, BRCA2 interacting) [SID405528054], technical replicate 1 the deposit lists viability, normalised (%) = 46 (active).
EMSY (EMSY transcriptional repressor, BRCA2 interacting) [SID405528054], technical replicate 2 scored viability, normalised (%) = 43.3 (active).
For EMSY (EMSY transcriptional repressor, BRCA2 interacting) [SID405528054], technical replicate 2, the values are viability, normalised (%) = 61.3 (active).
EMSY (EMSY transcriptional repressor, BRCA2 interacting) [SID405528054], technical replicate 3 scored viability, normalised (%) = 66.3 (active).
EMSY (EMSY transcriptional repressor, BRCA2 interacting) [SID405528054], technical replicate 3 showed viability, normalised (%) = 52.7 (active).
For FXR2 (FMR1 autosomal homolog 2) [SID405526804], technical replicate 1 the deposit lists viability, normalised (%) = 74 (active).
FXR2 (FMR1 autosomal homolog 2) [SID405526804], technical replicate 2 gave viability, normalised (%) = 81.4.
FXR2 (FMR1 autosomal homolog 2) [SID405526804], technical replicate 3 scored viability, normalised (%) = 77.9 (active).
For HDAC6 (histone deacetylase 6) [SID405526844], technical replicate 1, the values are viability, normalised (%) = 72.6 (active).
For HDAC6 (histone deacetylase 6) [SID405526844], technical replicate 2 the deposit lists viability, normalised (%) = 80.3.
HDAC6 (histone deacetylase 6) [SID405526844], technical replicate 3 scored viability, normalised (%) = 87.5.
With SUZ12 (SUZ12 polycomb repressive complex 2 subunit) [SID405526515], technical replicate 1 the deposit lists viability, normalised (%) = 86.7.
With SUZ12 (SUZ12 polycomb repressive complex 2 subunit) [SID405526515], technical replicate 2, the values are viability, normalised (%) = 96.
SUZ12 (SUZ12 polycomb repressive complex 2 subunit) [SID405526515], technical replicate 3 gave viability, normalised (%) = 90.2.
With NAALADL1 (N-acetylated alpha-linked acidic dipeptidase like 1) [SID405527490], technical replicate 1, the entry reads viability, normalised (%) = 97.8.
NAALADL1 (N-acetylated alpha-linked acidic dipeptidase like 1) [SID405527490], technical replicate 2 gave viability, normalised (%) = 54.9 (active).
NAALADL1 (N-acetylated alpha-linked acidic dipeptidase like 1) [SID405527490], technical replicate 3 scored viability, normalised (%) = 84.1.
With CHUK [SID405527744], technical replicate 1, the values are viability, normalised (%) = 71.6 (active).
With CHUK [SID405527744], technical replicate 2, the entry reads viability, normalised (%) = 60.7 (active).
With CHUK [SID405527744], technical replicate 3, the values are viability, normalised (%) = 65.8 (active).
With AGO4 (argonaute RISC component 4) [SID405527957], technical replicate 1, the values are viability, normalised (%) = 60.6 (active).
With AGO4 (argonaute RISC component 4) [SID405527957], technical replicate 2, the entry reads viability, normalised (%) = 59.8 (active).
AGO4 (argonaute RISC component 4) [SID405527957], technical replicate 3 scored viability, normalised (%) = 46.6 (active).
With TSSK6 (testis specific serine kinase 6) [SID405527790], technical replicate 1 the deposit lists viability, normalised (%) = 97.6.
For TSSK6 (testis specific serine kinase 6) [SID405527790], technical replicate 2, the entry reads viability, normalised (%) = 77.2 (active).
TSSK6 (testis specific serine kinase 6) [SID405527790], technical replicate 3 gave viability, normalised (%) = 78.5 (active).

Reprinted from the listing, 6 entries:
MBD3 (methyl-CpG binding domain protein 3) [SID405526971], technical replicate 1 — viability, normalised (%) = 41.9 (active)
MBD3 (methyl-CpG binding domain protein 3) [SID405526971], technical replicate 2 — viability, normalised (%) = 42.2 (active)
MBD3 (methyl-CpG binding domain protein 3) [SID405526971], technical replicate 3 — viability, normalised (%) = 48 (active)
PLCB2 (phospholipase C beta 2) [SID405526706], technical replicate 1 — viability, normalised (%) = 80.1
PLCB2 (phospholipase C beta 2) [SID405526706], technical replicate 2 — viability, normalised (%) = 72 (active)
PLCB2 (phospholipase C beta 2) [SID405526706], technical replicate 3 — viability, normalised (%) = 86.6
